Assay results reported in the supplement of paper PMC10849652.
The list shows a part of the results.

Chains of the proteins cited; added tags and fusions are not shown. Lines headed by an entry give the natural chain unless they say otherwise; changes in a name come on top.
UniProt P20700: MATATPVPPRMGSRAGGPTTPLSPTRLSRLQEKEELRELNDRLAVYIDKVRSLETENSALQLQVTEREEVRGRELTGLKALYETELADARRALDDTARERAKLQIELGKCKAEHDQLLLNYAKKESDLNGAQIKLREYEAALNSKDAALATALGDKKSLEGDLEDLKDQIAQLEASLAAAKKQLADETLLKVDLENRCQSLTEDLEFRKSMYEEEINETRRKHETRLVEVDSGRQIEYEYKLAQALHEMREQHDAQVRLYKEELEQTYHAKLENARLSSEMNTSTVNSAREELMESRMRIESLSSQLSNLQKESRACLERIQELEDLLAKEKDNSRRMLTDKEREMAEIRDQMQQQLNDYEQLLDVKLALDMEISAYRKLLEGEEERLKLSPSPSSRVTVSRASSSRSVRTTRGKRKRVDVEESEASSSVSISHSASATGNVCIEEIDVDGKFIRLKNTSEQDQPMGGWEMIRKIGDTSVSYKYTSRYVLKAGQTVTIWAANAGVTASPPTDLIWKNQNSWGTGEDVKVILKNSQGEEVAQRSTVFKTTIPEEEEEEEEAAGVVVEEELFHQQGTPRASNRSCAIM
UniProt P28300: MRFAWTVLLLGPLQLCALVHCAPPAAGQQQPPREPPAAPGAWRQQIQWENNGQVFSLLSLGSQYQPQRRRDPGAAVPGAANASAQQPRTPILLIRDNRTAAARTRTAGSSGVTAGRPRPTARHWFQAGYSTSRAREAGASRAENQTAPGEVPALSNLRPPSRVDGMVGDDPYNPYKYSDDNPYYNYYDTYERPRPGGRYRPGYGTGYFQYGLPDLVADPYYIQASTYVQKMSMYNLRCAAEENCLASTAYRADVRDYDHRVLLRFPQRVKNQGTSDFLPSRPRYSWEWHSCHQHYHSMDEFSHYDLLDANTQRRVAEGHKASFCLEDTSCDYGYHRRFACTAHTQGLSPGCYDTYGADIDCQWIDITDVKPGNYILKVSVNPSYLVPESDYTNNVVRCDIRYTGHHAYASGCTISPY
UniProt P11279: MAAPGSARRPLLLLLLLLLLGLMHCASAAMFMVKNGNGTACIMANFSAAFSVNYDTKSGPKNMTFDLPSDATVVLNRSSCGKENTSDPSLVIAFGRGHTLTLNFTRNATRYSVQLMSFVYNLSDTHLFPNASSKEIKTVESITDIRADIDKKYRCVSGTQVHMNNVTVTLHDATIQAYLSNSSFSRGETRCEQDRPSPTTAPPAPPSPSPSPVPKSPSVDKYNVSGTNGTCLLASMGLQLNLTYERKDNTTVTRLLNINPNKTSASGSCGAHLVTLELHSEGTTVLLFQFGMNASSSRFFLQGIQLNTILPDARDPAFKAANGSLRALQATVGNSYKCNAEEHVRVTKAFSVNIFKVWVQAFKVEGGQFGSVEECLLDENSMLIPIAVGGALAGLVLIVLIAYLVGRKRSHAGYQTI
UniProt Q9H008: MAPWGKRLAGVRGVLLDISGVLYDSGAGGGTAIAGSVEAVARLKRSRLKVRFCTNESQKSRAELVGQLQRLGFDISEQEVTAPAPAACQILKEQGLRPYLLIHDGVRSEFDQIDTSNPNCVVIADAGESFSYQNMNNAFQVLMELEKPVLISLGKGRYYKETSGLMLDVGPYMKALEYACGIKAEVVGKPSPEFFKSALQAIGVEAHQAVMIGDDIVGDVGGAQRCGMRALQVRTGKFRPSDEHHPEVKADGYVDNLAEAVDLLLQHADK
UniProt P07864: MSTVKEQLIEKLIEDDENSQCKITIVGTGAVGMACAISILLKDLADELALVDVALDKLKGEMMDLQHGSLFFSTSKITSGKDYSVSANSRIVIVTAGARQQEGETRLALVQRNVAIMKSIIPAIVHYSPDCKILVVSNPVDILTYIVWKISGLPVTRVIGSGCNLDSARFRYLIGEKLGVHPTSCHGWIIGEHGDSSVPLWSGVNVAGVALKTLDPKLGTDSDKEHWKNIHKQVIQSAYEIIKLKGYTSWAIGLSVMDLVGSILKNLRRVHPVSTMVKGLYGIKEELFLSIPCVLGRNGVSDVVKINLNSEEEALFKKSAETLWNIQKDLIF
UniProt Q86WA8: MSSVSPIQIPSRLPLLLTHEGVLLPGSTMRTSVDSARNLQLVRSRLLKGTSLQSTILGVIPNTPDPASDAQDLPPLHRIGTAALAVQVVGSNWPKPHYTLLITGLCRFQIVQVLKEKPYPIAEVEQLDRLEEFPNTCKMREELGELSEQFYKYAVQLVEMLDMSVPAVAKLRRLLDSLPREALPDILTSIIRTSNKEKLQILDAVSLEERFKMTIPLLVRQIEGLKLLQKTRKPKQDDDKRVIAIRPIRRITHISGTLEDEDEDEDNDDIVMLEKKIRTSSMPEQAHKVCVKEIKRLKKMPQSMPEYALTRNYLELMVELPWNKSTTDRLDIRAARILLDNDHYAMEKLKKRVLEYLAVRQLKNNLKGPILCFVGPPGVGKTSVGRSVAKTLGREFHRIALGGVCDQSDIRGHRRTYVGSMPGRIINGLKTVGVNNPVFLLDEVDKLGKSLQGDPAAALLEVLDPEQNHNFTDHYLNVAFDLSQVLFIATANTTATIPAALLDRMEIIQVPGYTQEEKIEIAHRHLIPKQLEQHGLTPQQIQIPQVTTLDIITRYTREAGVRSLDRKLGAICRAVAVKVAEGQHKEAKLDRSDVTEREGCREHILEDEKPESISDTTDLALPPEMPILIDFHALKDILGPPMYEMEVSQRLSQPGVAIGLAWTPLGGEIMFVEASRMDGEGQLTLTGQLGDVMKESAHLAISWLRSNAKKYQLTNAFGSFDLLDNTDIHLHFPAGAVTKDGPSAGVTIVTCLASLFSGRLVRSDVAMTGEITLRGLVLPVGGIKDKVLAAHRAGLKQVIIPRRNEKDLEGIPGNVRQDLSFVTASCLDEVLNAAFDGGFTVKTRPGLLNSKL
UniProt Q8N1G4: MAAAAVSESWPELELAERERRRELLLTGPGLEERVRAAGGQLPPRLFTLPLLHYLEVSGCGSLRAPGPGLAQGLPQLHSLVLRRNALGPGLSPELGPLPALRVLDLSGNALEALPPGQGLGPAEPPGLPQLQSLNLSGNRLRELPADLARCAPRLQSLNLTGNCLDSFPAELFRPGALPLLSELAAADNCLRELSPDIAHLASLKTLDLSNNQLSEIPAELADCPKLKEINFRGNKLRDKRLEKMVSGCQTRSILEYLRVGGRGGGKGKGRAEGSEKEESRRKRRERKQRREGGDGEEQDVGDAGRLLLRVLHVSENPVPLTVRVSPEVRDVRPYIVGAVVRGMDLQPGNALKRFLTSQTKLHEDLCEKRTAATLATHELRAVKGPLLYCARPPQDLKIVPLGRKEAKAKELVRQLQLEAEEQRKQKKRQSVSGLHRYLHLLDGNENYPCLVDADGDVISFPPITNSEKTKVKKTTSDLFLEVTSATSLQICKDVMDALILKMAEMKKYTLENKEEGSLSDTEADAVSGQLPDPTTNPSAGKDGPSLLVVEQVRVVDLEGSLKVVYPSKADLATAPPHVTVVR
UniProt Q86VI4: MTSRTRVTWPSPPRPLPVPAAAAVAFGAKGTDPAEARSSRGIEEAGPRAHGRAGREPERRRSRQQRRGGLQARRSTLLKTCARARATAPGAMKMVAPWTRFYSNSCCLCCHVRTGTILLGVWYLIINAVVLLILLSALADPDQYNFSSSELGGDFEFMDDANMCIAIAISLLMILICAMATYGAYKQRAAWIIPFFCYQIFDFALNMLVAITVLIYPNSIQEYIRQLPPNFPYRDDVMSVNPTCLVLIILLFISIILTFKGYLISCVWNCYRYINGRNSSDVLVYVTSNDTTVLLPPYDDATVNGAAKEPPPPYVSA
UniProt P07942: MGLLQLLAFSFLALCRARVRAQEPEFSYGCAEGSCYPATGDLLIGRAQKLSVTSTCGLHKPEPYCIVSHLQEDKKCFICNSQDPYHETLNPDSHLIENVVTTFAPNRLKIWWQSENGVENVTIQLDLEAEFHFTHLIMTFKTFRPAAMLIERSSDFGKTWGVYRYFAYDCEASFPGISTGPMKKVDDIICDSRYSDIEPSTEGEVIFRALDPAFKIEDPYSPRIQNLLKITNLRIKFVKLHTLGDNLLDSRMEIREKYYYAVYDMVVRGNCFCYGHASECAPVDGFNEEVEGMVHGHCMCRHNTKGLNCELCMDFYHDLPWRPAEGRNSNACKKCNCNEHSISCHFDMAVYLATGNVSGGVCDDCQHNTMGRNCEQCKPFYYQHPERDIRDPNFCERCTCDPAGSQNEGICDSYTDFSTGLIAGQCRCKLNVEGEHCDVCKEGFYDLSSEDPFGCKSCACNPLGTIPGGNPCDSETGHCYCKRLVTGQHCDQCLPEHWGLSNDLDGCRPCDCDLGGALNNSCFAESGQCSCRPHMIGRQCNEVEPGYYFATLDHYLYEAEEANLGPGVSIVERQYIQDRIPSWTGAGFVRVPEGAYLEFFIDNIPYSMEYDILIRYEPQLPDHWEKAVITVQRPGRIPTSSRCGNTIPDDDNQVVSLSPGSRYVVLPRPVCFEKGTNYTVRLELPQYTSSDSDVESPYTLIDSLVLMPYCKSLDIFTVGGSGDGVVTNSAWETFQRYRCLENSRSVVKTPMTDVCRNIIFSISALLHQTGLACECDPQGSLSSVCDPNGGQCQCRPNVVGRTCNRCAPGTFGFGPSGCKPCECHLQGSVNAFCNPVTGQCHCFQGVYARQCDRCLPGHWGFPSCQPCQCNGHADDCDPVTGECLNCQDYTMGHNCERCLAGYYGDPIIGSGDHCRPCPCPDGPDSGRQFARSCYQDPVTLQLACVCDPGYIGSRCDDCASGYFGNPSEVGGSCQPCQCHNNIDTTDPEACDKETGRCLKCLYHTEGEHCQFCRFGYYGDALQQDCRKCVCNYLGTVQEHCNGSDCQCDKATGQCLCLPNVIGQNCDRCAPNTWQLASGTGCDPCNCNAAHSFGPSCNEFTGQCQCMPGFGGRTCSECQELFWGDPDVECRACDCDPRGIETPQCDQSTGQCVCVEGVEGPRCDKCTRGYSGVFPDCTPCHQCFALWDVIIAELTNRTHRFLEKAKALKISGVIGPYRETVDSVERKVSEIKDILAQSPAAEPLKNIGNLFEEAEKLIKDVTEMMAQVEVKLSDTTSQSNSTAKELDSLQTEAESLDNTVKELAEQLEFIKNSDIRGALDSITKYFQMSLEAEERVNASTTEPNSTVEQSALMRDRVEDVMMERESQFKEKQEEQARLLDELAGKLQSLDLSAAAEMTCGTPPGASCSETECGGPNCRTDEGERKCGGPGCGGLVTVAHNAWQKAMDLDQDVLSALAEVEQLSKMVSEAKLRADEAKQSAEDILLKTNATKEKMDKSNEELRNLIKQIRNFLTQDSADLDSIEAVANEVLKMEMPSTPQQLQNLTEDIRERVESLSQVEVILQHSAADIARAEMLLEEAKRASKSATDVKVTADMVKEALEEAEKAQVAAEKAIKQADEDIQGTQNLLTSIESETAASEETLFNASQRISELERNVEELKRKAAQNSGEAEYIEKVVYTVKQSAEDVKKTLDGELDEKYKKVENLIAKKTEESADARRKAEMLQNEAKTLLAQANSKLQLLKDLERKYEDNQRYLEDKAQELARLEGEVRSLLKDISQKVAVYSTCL
UniProt Q9Y4W2: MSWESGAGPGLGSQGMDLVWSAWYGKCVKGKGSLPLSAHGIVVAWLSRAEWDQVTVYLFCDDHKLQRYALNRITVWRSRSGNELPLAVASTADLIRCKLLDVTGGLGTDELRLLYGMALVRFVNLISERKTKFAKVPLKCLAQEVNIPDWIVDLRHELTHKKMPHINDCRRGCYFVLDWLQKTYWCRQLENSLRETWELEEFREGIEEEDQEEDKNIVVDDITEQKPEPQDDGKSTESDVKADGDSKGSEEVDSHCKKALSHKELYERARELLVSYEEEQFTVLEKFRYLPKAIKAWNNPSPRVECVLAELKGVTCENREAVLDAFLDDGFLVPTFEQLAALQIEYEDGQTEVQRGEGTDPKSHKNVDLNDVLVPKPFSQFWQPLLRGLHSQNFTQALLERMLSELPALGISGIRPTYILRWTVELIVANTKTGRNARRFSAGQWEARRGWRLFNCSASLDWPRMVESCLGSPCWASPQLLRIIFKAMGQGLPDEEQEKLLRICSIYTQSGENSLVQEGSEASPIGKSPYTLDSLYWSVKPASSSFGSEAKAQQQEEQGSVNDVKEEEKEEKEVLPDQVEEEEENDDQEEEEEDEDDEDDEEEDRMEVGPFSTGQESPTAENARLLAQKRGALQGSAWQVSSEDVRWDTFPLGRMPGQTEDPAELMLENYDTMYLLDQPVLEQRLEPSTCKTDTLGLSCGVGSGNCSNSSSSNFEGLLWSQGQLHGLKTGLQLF
UniProt Q96BZ8: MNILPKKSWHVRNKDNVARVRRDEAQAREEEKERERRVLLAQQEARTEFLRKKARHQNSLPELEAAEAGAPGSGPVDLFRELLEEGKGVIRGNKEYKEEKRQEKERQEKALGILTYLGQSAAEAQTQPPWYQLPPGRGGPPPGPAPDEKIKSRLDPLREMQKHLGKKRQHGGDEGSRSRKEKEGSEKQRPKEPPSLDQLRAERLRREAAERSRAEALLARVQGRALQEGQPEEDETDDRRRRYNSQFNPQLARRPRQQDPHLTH

Key:
Assay in all cases: log2 fold change, soluble protein after heating vs DMSO (PISA); higher = thermal stabilisation; K562 cells, 10 uM, 30 min; active = over 0.2 and 3.5 SD of the protein, either way, in both replicates (recomputed)
[1] = compound: C1=CC=C(C=C1)[C@H](COC2=CC3=C(C=C2)NC(=O)N3)NC(=O)C4=CC=CN(C4=O)CC5=CC(=C(C=C5)F)F
Method in brief: (§1)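 K562 cells at 2×10^6 cells/mL were treated for 30 min with 10 μM compound, and aliquots were heated for 3 min over 48°C-58°C before pooling. Extraction used PBS with 0.5% NP-40 at 4°C, and soluble protein was the supernatant after 21,000xg for 90 min, measured by TMTpro 16plex LC-MS/MS with channel sums equalised. Thermal stability values, relative to control samples and from duplicates, are log2 fold changes.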

[2] = compound: CC1=C(SC2=C1C(=N[C@H](C3=NN=C(N32)C)CC(=O)N)C4=CC=C(C=C4)Cl)C
Method in brief: as §1

[3] = compound: CC1=C2C(=CC=C1)N=C(N(C2=O)C3=CC=CC=C3C)CN4C=NC5=C(N=CN=C54)N
Method in brief: as §1

[4] = compound: Cc1sc2c(c1C)C(c1ccc(Cl)cc1)=N[C@@H](CC(=O)OC(C)(C)C)c1nnc(C)n1-2
Method in brief: as §1

[5] = compound: c1ccc([C@@H]2C[C@H]2NC2CCNCC2)cc1
Method in brief: as §1

Measured: log2 fold change

LMNB1 (UniProt P20700)
inactive: [1] 0.08 | [2] -0.005 | [3] -0.009 | [4] -0.018 | [5] 0.042

LMLN isoform 3 (UniProt Q96KR4)
inactive: [1] -0.045

LOX (UniProt P28300)
inactive: [1] -0.113

LEMD2 (UniProt Q8NC56)
inactive: [1] -0.031 | [2] 0.136 | [3] 0.114 | [4] -0.017 | [5] 0.005

LAMTOR5 (UniProt O43504)
inactive: [1] 0.004 | [2] -0.124 | [3] -0.226 | [4] -0.1 | [5] 0.025

Random excerpt: 2 records from the list
LEMD2 (UniProt Q8NC56)
inactive: [1] -0.031 | [2] 0.136 | [3] 0.114 | [4] -0.017 | [5] 0.005

LAMTOR5 (UniProt O43504)
inactive: [1] 0.004 | [2] -0.124 | [3] -0.226 | [4] -0.1 | [5] 0.025

Continued.

LDLRAP1 (UniProt Q5SW96)
inactive: [1] 0.055

LRIG2 (UniProt O94898)
inactive: [1] 0.02 | [2] -0.005 | [3] 0.091 | [4] -0.06 | [5] 0.054

LINS1 (UniProt Q8NG48)
inactive: [1] -0.089

LRRC41 (UniProt Q15345)
inactive: [1] 0.038

LAMP1 (UniProt P11279)
inactive: [1] -0.002 | [2] -0.023 | [3] -0.027 | [4] -0.061 | [5] 0.031

LPP (UniProt Q93052)
inactive: [1] -0.12

KYAT3 (UniProt Q6YP21)
inactive: [1] -0.01 | [2] 0.027 | [3] 0.012 | [4] 0.008 | [5] 0.025

LIG1 (UniProt P18858)
inactive: [1] -0.103 | [2] 0.094 | [3] 0.13 | [4] -0.064 | [5] -0.031

LMBRD2 (UniProt Q68DH5)
inactive: [1] 0.029 | [2] 0.084 | [3] 0.06 | [4] -0.12 | [5] -0.035

LANCL1 (UniProt O43813)
inactive: [1] 0.025 | [2] 0.009 | [3] 0.006 | [4] -0.024 | [5] 0.018

LHPP (UniProt Q9H008)
inactive: [1] -0.075 | [2] -0.002 | [3] 0.024 | [4] -0.036 | [5] 0.019

LDHC (UniProt P07864)
inactive: [1] 0.08

LONP2 (UniProt Q86WA8)
inactive: [1] -0.036 | [2] 0.009 | [3] 0.02 | [4] 0.009 | [5] -0.147

LRFN1 (UniProt Q9P244)
inactive: [1] -0.069 | [2] 0.183 | [3] 0.042 | [4] -0.02 | [5] -0.411

LIN9 isoform 2 (UniProt Q5TKA1)
inactive: [1] 0.02 | [2] 0.053 | [3] 0.073 | [4] -0.007 | [5] 0.06

LDHA isoform 3 (UniProt P00338)
inactive: [1] 0.047 | [2] 0.02 | [3] -0.009 | [4] -0.025 | [5] 0

LIAS (UniProt O43766)
inactive: [1] 0.001 | [2] -0.042 | [3] 0.008 | [4] 0.049 | [5] 0.05

LRRC47 (UniProt Q8N1G4)
inactive: [1] -0.016 | [2] 0.014 | [3] 0.004 | [4] -0.024 | [5] -0.051

LAPTM4B (UniProt Q86VI4)
inactive: [1] -0.12

LIMA1 isoform 4 (UniProt Q9UHB6)
inactive: [1] 0.002 | [2] 0.014 | [3] -0.002 | [4] -0.028 | [5] 0.034

LAMB1 (UniProt P07942)
inactive: [1] 0.013 | [2] 0.1 | [3] 0.056 | [4] -0.061 | [5] -0.022

LAS1L (UniProt Q9Y4W2)
inactive: [1] -0.26 | [2] -0.078 | [3] 0.193 | [4] -0.023 | [5] 0.072

LIMS1 (UniProt P48059)
inactive: [1] -0.03

LETM1 (UniProt O95202)
inactive: [1] -0.015 | [2] 0.017 | [3] 0.039 | [4] -0.066 | [5] -0.018

LENG1 (UniProt Q96BZ8)
inactive: [1] 0.017 | [2] 0 | [3] 0.074 | [4] 0.118 | [5] 0.055
